These are yes or no findings as the source states them, for the method shown. Some results given as binding are weak or reduced against the parent protein; the word gives no strength.
Key:
[1] = molecular target: cynomolgus monkey BCMA stably expressed on Ad293 cells (cynomolgus monkey); experiment: FACS on Ad293 cells stably expressing cynomolgus BCMA, Alexa Fluor 647 secondary antibody, raw MFI (geo mean)
[2] = molecular target: cynomolgus monkey BCMA stably expressed on Ad293 cells (cynomolgus monkey); experiment: FACS on Ad293 cells stably expressing cynomolgus BCMA
[3] = molecular target: cynomolgus monkey BCMA stably expressed on Ad293 cells (cynomolgus monkey); experiment: FACS on Ad293 cells expressing cynoBCMA

Measured: binding

B1: 15B2GL monoclonal antibody (antibody, V domains shown)
VH: EVQLVESGGGLVKPGGSLRLSCAASGFTFRSYSMNWVRQAPGKGLEWVSSISGSSNYIYYADSVKGRFTISRDNAKNSLYLQMNSLRAEDTAVYYCARGGNYYVEYFQYWGQGTLVTVSS
VL: EIVLTQSPGTLSLSPGERATLSCRASQYISSNYLAWYQQKPGQAPRLLIYGASNRATGIPDRFSGSGSGTDFTLTISRLEPEDFAVYYCQQYGSSPITFGQGTKLEIK
notes: Clone 15B2 was converted into human IgG1 and germlined at four residues (15B2GL); also called germlined 15B2
binds: all assays above

From patent US20210214460A1 (AstraZeneca / MedImmune, published 2021)
